Source: PubChem BioAssay AID504774 (Drosophila RNAi Screening Center, 2011)
Aim: 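Knock-downs that shift viability of MMS-exposed cells relative to untreated ones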 (primary screen). System: Drosophila Kc167 cells. Reagent: long dsRNA against Drosophila genes, about 0.25 µg dsRNA per well. Duration: about 6 days: 3 days knock-down, then 3 days with or without MMS. Conditions: methyl methanesulphonate 0.004% (w/v) for 3 days after knock-down. Read-out: 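ATP-dependent luminescence as a measure of live cells in MMS-exposed wells, quantile normalised within each plate, with replicate values also given as a mean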. Reading the numbers: mean viability with MMS: higher = more surviving cells after MMS.
The deposit covers about 23,000 reagents; below is an unselected part of those with a known target gene and a result. 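Values are quantile-normalised luminescence on an arbitrary scale; higher means more cells surviving MMS.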 Not all columns of the deposit are shown. No sequences are given here.

mean viability with MMS	target	DRSC id
3.59e6	htl (heartless)	DRSC16968
3.52e6	Gr64c (Gustatory receptor 64c)	DRSC08445
3.41e6	Glut1 (Glucose transporter 1)	DRSC07927
3.70e6	Glut1 (Glucose transporter 1)	DRSC08662
3.44e6	Or71a (Odorant receptor 71a)	DRSC11244
3.02e6	CG14441	DRSC17934
3.78e6	Thor	DRSC00770
3.40e6	DppIII (Dipeptidyl aminopeptidase III)	DRSC16241
3.65e6	CG1116	DRSC12166
3.43e6	PolQ (DNA polymerase theta)	DRSC17006
3.48e6	obst-E (obstructor-E)	DRSC02128
3.62e6	CG8891	DRSC03120
3.49e6	Amyrel (Amylase related)	DRSC05920
3.48e6	wat (waterproof)	DRSC14854
3.49e6	CG7551	DRSC10876
3.31e6	Sec16 (Secretory 16)	DRSC19788
3.57e6	Sec16 (Secretory 16)	DRSC19858
3.63e6	Lnpk (Lunapark)	DRSC07254
3.51e6	CG32642	DRSC18959
3.61e6	Spase25 (Spase 25-subunit)	DRSC19776
3.60e6	Ssb-c31a (Single stranded-binding protein c31A)	DRSC03443
3.46e6	Golgin97 (Golgin 97)	DRSC06895
3.50e6	chk (chaski)	DRSC04994
3.51e6	Act79B (Actin 79B)	DRSC11604
3.39e6	CHKov1 (CHK domain ov1)	DRSC01566
3.36e6	CHKov1 (CHK domain ov1)	DRSC01696
3.34e6	CHKov1 (CHK domain ov1)	DRSC14258
2.34e6	CHKov1 (CHK domain ov1)	DRSC20937
2.87e6	Spx (Spliceosomal protein on the X)	DRSC18720
3.61e6	CG7326	DRSC20037
3.35e6	mahj (mahjong)	DRSC04053
3.58e6	CG1090	DRSC12150
3.81e6	CG1090	DRSC21604
3.53e6	CG17036	DRSC02564
3.56e6	CG4676	DRSC06879
3.56e6	Balat (Beta-alanine transporter)	DRSC06852
3.72e6	CG5850	DRSC02905
3.45e6	CG7849	DRSC04895
3.55e6	CG12134	DRSC06109
3.67e6	CG4955	DRSC19927
3.68e6	CG18539	DRSC06766
3.49e6	a10 (antennal protein 10)	DRSC11319
3.47e6	Cox17 (Cytochrome c oxidase copper chaperone COX17)	DRSC20145
3.50e6	CAH15 (Carbonic anhydrase 15)	DRSC04534
3.58e6	CG14644	DRSC12230
3.51e6	CG13026	DRSC09906

In a second layout: results already given
mean viability with MMS,target,DRSC id
3.61e6,Spase25 (Spase 25-subunit),DRSC19776
3.60e6,Ssb-c31a (Single stranded-binding protein c31A),DRSC03443
3.46e6,Golgin97 (Golgin 97),DRSC06895
3.50e6,chk (chaski),DRSC04994
3.51e6,Act79B (Actin 79B),DRSC11604
3.39e6,CHKov1 (CHK domain ov1),DRSC01566
3.36e6,CHKov1 (CHK domain ov1),DRSC01696
3.34e6,CHKov1 (CHK domain ov1),DRSC14258
